Measured values as given in patent publication EP3984547A1 (Universitat Pompeu Fabra, dated 2022).
HELM strings list residues between dots; [ac] is acetyl, [am] amide, other brackets name non-standard units.

Assay: general procedure: Fmoc solid-phase peptide synthesis; H-Rink Amide-ChemMatrix resin, 0.50 mmol/g; N,N,N',N'-tetramethyluronium hexafluorophosphate (5 eq) / DIEA (10 eq)
Details: whole synthesis, 220 nm, scale of the general procedure 0.05 mmol

Substance | purity (crude or final not stated) [%]
PEPTIDE1{D.N.G.G.G.N.T.D.I.Y.S.E.[am]}$$$$V2.0 | 88
PEPTIDE1{S.W.Y.D.H.M.A.G.D.S.S.Y.[am]}$$$$V2.0 | 95
PEPTIDE1{S.Y.T.D.V.Q.D.S.[am]}$$$$V2.0 | 93
PEPTIDE1{T.T.D.G.S.T.G.D.D.L.Q.A.[am]}$$$$V2.0 | 96
